According to paper PMC11162793:
Results are given in words; binding and its absence hold for the method and conditions named. Binding seen in cells or lysates may run through a third protein. Some results given as binding are weak or reduced against the parent protein; the word gives no strength. Sequences can lack the tags named with a protein.

The chains behind the UniProt entries cited, without tags or fusion partners.
UniProt Q06609: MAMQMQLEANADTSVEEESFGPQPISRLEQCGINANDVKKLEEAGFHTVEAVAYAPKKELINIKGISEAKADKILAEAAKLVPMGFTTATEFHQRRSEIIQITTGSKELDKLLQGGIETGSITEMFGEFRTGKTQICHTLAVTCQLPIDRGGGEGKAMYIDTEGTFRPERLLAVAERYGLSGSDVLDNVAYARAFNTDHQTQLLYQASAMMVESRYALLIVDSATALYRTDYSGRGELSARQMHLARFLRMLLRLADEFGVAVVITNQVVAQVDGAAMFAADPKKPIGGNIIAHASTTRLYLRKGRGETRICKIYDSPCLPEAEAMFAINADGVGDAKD

Biological target: T1, Myc-FIGNL1 (human) (UniProt Q6PIW4)
T1 sequence: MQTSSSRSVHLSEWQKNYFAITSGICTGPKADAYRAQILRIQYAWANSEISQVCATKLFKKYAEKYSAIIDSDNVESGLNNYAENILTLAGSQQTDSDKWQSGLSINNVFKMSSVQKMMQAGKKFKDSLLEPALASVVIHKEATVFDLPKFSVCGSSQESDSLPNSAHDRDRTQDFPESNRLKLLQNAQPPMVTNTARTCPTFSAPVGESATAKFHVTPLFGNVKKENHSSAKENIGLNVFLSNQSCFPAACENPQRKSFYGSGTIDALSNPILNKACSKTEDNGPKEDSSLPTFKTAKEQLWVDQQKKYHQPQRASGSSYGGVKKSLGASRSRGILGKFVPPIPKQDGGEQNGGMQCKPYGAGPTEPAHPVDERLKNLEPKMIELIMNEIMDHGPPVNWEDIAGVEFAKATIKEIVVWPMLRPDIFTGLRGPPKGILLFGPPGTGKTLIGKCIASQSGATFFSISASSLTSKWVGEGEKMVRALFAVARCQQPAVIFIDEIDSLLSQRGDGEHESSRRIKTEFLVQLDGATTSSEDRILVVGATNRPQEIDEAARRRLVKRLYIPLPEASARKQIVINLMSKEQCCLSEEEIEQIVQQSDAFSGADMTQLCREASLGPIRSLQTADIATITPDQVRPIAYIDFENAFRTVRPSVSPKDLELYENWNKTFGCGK
Assay: co-IP; HA-RAD51 and Myc-FIGNL1 variants co-expressed in 293T cells; cells lysed in benzonase buffer, NaCl raised to 500 mM, extract diluted 1:3 with no-salt IP buffer; anti-Myc affinity gel 90 min at 4°C; washed in IP buffer (150 mM NaCl, 0.25% NP-40); Western blot

binding: binds
Substance: HA-RAD51 (from UniProt Q06609 1-339)
